The supplement of paper PMC11732987, “Enantioselective OTUD7B fragment discovery through chemoproteomics screening and high-throughput optimisation” (Communications Chemistry, 2025)
The list shows a part of the results. The data scatter; read single values as rough.

Sequences of proteins named here, by UniProt entry; tags and fusion partners are left off. A change or cut given only in a name is not applied to a line headed by its entry. Residues count along the entry.
UniProt P13796: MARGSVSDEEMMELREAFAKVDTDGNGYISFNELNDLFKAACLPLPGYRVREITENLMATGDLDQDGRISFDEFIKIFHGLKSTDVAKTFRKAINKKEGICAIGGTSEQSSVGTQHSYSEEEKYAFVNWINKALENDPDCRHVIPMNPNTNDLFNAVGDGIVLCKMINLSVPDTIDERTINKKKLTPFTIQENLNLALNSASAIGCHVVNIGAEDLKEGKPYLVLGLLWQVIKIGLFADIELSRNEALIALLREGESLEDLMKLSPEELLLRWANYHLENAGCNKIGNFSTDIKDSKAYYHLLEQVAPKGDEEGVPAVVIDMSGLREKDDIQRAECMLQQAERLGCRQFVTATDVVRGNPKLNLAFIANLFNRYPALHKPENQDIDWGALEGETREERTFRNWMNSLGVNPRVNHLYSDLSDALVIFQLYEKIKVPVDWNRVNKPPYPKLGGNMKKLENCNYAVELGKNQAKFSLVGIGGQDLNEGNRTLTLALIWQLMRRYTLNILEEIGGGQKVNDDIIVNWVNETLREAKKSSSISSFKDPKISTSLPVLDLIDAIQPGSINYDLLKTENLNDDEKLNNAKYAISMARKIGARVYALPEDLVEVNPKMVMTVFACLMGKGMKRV
UniProt Q6P1A2: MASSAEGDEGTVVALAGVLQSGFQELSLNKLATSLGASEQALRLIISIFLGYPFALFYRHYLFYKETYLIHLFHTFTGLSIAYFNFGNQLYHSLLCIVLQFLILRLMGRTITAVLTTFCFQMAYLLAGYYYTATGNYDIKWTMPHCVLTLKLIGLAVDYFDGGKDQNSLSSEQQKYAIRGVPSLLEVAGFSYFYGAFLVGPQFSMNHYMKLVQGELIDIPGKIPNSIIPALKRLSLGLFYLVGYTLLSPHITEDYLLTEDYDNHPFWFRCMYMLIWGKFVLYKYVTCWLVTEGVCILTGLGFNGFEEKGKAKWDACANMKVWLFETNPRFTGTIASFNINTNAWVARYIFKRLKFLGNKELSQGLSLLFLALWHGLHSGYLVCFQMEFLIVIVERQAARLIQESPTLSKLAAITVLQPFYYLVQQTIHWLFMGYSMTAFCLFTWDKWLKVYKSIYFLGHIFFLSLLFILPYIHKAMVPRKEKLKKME
UniProt Q9NVR0: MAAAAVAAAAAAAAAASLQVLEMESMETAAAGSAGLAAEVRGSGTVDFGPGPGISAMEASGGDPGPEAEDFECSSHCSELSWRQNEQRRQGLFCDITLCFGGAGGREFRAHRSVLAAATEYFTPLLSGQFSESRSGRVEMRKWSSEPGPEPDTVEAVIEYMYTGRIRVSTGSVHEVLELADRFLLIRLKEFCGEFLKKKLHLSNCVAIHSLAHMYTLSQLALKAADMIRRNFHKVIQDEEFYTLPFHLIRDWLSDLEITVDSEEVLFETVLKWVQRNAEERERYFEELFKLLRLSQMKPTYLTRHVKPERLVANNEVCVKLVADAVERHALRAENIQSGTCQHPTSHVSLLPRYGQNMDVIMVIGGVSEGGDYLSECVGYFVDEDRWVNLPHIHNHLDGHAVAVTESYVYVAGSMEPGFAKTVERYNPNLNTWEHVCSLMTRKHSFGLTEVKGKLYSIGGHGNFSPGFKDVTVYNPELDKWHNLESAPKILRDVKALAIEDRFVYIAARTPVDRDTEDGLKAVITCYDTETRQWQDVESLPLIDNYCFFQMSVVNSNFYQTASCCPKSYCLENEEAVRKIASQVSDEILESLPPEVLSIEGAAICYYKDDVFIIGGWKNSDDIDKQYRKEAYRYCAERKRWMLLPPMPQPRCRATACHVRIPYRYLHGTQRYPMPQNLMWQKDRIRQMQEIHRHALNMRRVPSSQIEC
UniProt O14686, 1259-1283: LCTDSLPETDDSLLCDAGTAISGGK
UniProt Q9NS86: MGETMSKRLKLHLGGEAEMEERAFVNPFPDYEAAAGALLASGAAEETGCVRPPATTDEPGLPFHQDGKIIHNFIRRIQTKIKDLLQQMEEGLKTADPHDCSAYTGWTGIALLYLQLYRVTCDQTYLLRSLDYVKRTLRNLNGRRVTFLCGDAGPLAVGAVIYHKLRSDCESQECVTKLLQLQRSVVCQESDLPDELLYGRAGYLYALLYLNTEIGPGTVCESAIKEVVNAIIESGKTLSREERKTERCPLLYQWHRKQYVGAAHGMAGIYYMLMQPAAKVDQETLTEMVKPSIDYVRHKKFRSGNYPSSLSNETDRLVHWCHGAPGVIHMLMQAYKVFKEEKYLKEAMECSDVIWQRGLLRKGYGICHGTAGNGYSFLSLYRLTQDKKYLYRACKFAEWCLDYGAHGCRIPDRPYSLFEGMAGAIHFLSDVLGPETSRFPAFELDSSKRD
UniProt Q5SW96: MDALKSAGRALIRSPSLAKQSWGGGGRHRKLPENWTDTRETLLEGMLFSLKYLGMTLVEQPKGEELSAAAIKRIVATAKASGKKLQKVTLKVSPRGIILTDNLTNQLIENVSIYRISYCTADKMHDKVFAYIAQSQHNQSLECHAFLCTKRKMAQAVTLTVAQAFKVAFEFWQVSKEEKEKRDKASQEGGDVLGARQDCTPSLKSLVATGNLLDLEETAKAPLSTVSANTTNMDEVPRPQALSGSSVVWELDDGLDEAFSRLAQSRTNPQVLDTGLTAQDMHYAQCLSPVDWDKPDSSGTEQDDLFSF
UniProt Q8NG31: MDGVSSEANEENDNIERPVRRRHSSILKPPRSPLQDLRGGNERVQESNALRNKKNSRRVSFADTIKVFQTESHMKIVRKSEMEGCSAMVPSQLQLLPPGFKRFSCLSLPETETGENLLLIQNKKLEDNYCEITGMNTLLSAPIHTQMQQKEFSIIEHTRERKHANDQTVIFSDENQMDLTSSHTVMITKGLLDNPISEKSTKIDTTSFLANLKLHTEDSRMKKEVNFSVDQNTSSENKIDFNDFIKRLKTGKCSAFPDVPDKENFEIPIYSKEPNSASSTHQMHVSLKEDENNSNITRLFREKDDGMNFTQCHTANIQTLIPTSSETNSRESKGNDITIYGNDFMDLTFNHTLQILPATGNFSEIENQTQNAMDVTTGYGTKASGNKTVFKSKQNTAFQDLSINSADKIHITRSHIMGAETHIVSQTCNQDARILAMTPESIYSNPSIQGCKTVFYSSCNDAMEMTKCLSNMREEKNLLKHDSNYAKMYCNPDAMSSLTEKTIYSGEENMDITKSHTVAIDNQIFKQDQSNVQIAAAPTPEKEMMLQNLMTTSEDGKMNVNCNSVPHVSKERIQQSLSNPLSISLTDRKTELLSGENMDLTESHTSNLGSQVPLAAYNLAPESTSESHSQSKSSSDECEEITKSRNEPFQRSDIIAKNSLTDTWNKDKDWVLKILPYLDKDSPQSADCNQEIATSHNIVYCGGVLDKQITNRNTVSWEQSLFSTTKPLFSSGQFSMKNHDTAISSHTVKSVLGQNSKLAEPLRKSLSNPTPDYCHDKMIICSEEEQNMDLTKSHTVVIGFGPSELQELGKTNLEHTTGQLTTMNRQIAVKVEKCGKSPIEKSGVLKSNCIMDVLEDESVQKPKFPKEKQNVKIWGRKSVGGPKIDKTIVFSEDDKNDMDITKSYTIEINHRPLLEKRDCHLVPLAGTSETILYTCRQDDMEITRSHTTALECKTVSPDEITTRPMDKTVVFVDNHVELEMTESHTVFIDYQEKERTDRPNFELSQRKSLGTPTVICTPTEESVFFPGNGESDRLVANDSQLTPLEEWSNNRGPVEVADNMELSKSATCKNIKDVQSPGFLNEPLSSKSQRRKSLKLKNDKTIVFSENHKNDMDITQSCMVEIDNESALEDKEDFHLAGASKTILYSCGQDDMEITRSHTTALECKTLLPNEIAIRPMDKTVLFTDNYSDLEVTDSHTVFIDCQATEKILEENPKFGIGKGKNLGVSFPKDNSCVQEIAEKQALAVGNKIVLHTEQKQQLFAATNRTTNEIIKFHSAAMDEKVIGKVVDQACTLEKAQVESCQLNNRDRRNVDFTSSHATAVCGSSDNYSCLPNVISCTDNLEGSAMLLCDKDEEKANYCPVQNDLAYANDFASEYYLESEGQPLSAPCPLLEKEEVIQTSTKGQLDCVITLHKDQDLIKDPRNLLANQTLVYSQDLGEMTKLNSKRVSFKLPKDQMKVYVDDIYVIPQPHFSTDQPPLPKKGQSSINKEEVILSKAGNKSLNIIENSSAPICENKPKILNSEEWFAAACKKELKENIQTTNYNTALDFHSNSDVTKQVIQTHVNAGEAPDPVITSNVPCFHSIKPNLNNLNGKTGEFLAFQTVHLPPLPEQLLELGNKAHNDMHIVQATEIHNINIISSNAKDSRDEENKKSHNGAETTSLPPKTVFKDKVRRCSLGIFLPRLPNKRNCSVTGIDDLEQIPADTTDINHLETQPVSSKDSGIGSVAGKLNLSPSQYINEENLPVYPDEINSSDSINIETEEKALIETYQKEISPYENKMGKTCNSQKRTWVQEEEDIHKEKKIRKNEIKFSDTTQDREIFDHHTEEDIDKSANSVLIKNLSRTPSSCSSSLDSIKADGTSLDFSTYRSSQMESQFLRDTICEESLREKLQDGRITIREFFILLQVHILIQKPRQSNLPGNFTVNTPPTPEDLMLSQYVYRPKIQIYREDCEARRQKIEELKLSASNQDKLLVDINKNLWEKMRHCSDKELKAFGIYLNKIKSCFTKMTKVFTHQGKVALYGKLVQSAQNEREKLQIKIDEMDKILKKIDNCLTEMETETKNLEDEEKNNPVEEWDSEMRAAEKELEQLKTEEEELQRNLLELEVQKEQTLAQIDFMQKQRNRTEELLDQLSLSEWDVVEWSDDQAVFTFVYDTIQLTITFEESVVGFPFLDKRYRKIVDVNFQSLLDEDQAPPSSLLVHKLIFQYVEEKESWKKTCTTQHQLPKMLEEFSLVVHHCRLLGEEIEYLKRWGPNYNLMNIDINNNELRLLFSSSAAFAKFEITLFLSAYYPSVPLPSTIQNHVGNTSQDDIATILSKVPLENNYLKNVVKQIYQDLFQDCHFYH
UniProt Q9H6V9: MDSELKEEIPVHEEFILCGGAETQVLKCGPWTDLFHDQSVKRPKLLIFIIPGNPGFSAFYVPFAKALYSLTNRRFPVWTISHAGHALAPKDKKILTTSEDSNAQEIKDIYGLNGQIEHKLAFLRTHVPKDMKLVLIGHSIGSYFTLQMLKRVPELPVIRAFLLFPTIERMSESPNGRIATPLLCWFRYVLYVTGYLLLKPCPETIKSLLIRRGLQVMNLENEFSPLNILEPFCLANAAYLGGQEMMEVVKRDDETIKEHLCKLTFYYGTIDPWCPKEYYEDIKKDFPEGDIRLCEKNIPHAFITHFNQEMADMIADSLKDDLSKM
UniProt Q9BQ90: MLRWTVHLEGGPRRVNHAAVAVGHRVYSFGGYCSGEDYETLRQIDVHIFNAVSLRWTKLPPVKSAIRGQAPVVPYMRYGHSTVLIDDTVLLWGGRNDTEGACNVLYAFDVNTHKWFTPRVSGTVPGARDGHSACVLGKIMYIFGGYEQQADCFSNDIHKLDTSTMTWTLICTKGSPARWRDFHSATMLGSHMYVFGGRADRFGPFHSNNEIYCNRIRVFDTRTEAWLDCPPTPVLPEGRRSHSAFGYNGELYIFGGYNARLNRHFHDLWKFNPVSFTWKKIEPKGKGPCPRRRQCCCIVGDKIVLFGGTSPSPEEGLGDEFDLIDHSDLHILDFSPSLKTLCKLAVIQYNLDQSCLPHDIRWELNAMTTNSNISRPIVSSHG
UniProt Q9P244, 642-664: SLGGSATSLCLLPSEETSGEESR
UniProt Q9UGP4: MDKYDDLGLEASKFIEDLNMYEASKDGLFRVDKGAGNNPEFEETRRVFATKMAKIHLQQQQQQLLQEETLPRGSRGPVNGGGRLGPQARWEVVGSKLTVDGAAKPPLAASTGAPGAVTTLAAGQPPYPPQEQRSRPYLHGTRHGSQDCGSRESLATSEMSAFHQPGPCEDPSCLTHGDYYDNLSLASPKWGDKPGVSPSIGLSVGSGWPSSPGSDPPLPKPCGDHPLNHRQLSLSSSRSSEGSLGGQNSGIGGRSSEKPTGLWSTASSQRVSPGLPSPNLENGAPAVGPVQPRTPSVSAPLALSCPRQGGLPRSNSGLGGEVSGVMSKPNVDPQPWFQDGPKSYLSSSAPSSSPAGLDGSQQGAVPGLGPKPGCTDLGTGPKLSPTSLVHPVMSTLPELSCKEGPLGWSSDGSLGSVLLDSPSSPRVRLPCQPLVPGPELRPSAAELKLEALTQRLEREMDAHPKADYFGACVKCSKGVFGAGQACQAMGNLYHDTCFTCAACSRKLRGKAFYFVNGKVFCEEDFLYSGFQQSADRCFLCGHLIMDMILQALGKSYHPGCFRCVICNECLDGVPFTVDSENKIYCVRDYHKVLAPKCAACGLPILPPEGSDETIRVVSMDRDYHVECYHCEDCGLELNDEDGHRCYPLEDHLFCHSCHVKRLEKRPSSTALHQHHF

Compound: ClCC(=O)N[C@H]1CCCc2ccccc12
Experiment: log2 mean competition ratio of IA-DTB cysteine labelling (DMSO/compound) (log2 ratio); higher = stronger cysteine engagement by compound
Settings: 50 µM; treatment time: 4 h; cell line lysate: HEK293T
Experimental: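 IA-DTB competitive cysteine chemoproteomics in HEK293T RIPA lysate. Lysates were treated with compound 29 or 30 at 50 or 200 µM for 4 h, then IA-DTB (500 µM, 1 h), trypsin-digested, NeutrAvidin-enriched and analysed by diaPASEF. Competition ratio = intensity DMSO / intensity compound (n=4 treated, n=64 DMSO); binding: mean log2 CR ≥ 1 and p ≤ 0.05 plus QC filters. Target is the cysteine site.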

Target	log2 mean competition ratio
KLC3 C230 (UniProt Q6P597)	0.345
LCP1 C336 (UniProt P13796)	-0.0382
LPIN3 C711 (UniProt Q9BQK8)	-0.135
KMT2A C456 (UniProt Q03164)	-0.0259
LPCAT3 C316 (UniProt Q6P1A2)	-0.132
KLHL11 C570 (UniProt Q9NVR0)	0.145
KIFAP3 C463 (UniProt Q92845)	-0.0395
KMT2D_(C1260,C1260,C1273,C1273) (UniProt O14686)	-0.151
KLRG2 C197	-0.0869
LRP1 C2605 (UniProt Q07954)	0.0153
LANCL2 C350 (UniProt Q9NS86)	0.201
LRCH2 C507	0.0107
LDLRAP1 C199 (UniProt Q5SW96)	-0.348
KNL1 C2338 (UniProt Q8NG31)	0.111
KLC4 C318 (UniProt Q9NSK0)	0.407
LDAH C261 (UniProt Q9H6V9)	-0.347
KLHDC3 C102 (UniProt Q9BQ90)	0.0703
LRFN1 C651 (UniProt Q9P244)	0.249
KNL1 C1847 (UniProt Q8NG31)	-0.658
LIMD1 C472 (UniProt Q9UGP4)	0.623

Same assay, conditions: 200 µM; treatment time: 4 h; cell line lysate: HEK293T

Target	log2 mean competition ratio
KLC3 C230 (UniProt Q6P597)	-0.00335
LCP1 C336 (UniProt P13796)	-0.0481
LPIN3 C711 (UniProt Q9BQK8)	0.0283
KMT2A C456 (UniProt Q03164)	-0.0154
LPCAT3 C316 (UniProt Q6P1A2)	-0.229
KLHL11 C570 (UniProt Q9NVR0)	-0.16
KIFAP3 C463 (UniProt Q92845)	0.0442
KMT2D_(C1260,C1260,C1273,C1273) (UniProt O14686)	0.0814
KLRG2 C197	0.386
LRP1 C2605 (UniProt Q07954)	0.382
LANCL2 C350 (UniProt Q9NS86)	-0.162
LRCH2 C507	0.155
LDLRAP1 C199 (UniProt Q5SW96)	0.22
KNL1 C2338 (UniProt Q8NG31)	0.0822
KLC4 C318 (UniProt Q9NSK0)	0.586
LDAH C261 (UniProt Q9H6V9)	-0.0952
KLHDC3 C102 (UniProt Q9BQ90)	-0.236
LRFN1 C651 (UniProt Q9P244)	-0.24
KNL1 C1847 (UniProt Q8NG31)	0.0221
LIMD1 C472 (UniProt Q9UGP4)	-0.0277
